Paper PMC5041093, “Acidic Residues Control the Dimerization of the N-terminal Domain of Black Widow Spiders’ Major Ampullate Spidroin 1” (Scientific Reports, 2016)
Results are given in words; binding and its absence hold for the method and conditions named. Some binding calls cover weakened binding; strength is not graded here.

Key:
[1] = target: amino-terminal domain of Latrodectus hesperus major ampullate spidroin 1, wildtype (Latrodectus hesperus) (UniProt A6YIY1); experiment: SEC-MALS; 35.6 μM and 142.5 μM wtNRN1 at pH 7.2; monomer to dimer; both purified
[2] = target: amino-terminal domain of Latrodectus hesperus major ampullate spidroin 1, wildtype (Latrodectus hesperus) (UniProt A6YIY1); experiment: SEC-MALS; Superdex 200 10/300 GL, 20 mM sodium phosphate pH 7.2 or 6.0 with 300 mM NaCl, 71.2 μM protein injected; monomer to dimer; both purified

B1: amino-terminal domain of Latrodectus hesperus major ampullate spidroin 1, wildtype (domain or fragment)
chain: QANTPWSSKANADAFINSFISAASNTGSFSQDQMEDMSLIGNTLMAAMDNMGGRITPSKLQALDMAFASSVAEIAASEGGDLGVTTNAIADALTSAFYQTTGVVNSRFISEIRSLIGMFAQASANDVYASAGS
notes: non-repetitive amino-terminal domain (NRN1) of major ampullate spidroin 1 (MaSp1), Latrodectus hesperus; also called wtNRN1_(L.h.); NRN1_(L.h.); source: E. coli BL21 (DE3), purified (nickel-NTA, SEC)
For B1, the binding [1] was “binds” and the binding [2] was “no binding (condition: with 300 mM NaCl)”.
